Experimental data from PubChem BioAssay AID540256 (National Center for Advancing Translational Sciences (NCATS), 2011).
Out of some 300,000 compounds screened, about 3,700 (1.2%) were called active. This list was built around the results that the source calls inconclusive (neither active nor inactive); the mix of calls is not that of the screen. Calls come from the whole dose curve; tested in HEK293 cells. Potencies of inconclusive entries are doubtful fits and often do not repeat.
% is set by controls: 0 for no effect and ±100 for the full control effect; potency is the fitted concentration of half-maximal effect.

Assay: qHTS for Inhibitors of binding or entry into cells for Lassa Virus; note: nearly all actives have a fitted effect of over 50% in size
Conditions: Lassa virus pseudotype entry inhibition, cell reporter; activity change, negative = inhibition: at 37.9 µM (top of the series) unless noted
For `CCOC(=O)C1CCCN(C(=O)c2csc(-c3ccc4c(c3)CCO4)n2)C1` (stereo unspecified), the Potency was inconclusive: 4.47 µM [inhibitor, partial curve]. For `O=C(CC(SCCO)c1ccc(F)cc1)c1ccco1` (stereo unspecified), the “activity change, negative = inhibition” value was inactive: 0.211%. In the case of `COc1ccc(N(C)S(=O)(=O)c2cccc(C(=O)NCC3CCCCC3)c2)cc1`, the Potency is reported as inconclusive: 28.2 µM [inhibitor, partial curve, poor fit]. With `CCc1nc(OCCN(C)C)c2oc3ccccc3c2n1` the Potency was inconclusive: 23.1 µM [activator, single point]. For `COc1cc(OC)c(NC(=O)c2cc(C)nc3c2c(C)nn3-c2ccc(C)cc2)cc1Cl`, the Potency was inconclusive: 2.51 µM [activator, partial curve, poor fit]. For `C=CCNC(=O)C(=O)N/N=C/c1ccco1`, the “activity change, negative = inhibition” value was inactive: 11.4%. With `CC(C)CCNC(=O)Nc1ccc2c(c1)N(Cc1ccccc1)C(=O)c1ccccc1S2` the Potency was inconclusive: 1.26 µM [inhibitor, full curve, poor fit]. For `CCCCn1cnc2sc(-c3ccccc3)cc2c1=O`, the Potency was inconclusive: 1.03 µM [activator, full curve, poor fit]. For `O=C(CC(c1ccco1)S(=O)(=O)c1ccccc1)c1ccccc1` (stereo unspecified), the Potency was inconclusive: 1 µM [inhibitor, single point]. In the case of `Cc1ccc2c(ccn3cc4c(c(=O)n(C)c(=O)n4C)c23)c1`, the Potency is reported as inconclusive: 1 µM [inhibitor, full curve, poor fit]. In the case of `O=C(c1ccccc1)C(CN1CCCCC1)c1ccccc1` (stereo unspecified), the Potency is reported as inconclusive: 14.1 µM [inhibitor, partial curve, poor fit]. With `O=C(c1cc(-c2cccc(O)c2)on1)N1CCCC1` the Potency was inconclusive: 35.5 µM [inhibitor, single point]. With `CCOC(=O)C1CCN(C(=S)Nc2ccc(CC)cc2)CC1` the Potency was inconclusive: 0.631 µM [inhibitor, partial curve, poor fit]. In the case of `CC1(C)CC(=O)C=C(NCCN2CCN(C(=S)Nc3ccccc3)CC2)C1`, the Potency is reported as inconclusive: 0.708 µM [inhibitor, single point]. For `CN1C(=O)N(C)C(=O)C2(Cc3cc(NC(=O)c4ccc(F)cc4)ccc3N3CCCC32)C1=O` (stereo unspecified), the “activity change, negative = inhibition” value was inactive: 6.26%. For `Cc1ccc(/C(=C\CN2CCCC2)c2ccccn2)cc1`, the Potency was inconclusive: 6.51 µM [inhibitor, partial curve, poor fit]. With `C[C@H](NC(=O)c1ccccc1F)C(=O)N1CCC2(CC1)NCCc1[nH]cnc12` the Potency was inconclusive: 7.08 µM [activator, partial curve, poor fit]. With `Cc1ccc(-n2nnnc2SCC(=O)N2CC(=O)Nc3ccccc32)cc1` the “activity change, negative = inhibition” value was inactive: -9.94%. In the case of `Cc1nn(-c2ccccc2)c(Cl)c1C(=O)OCC(=O)NCCc1ccccc1`, the Potency is reported as inconclusive: 0.891 µM [inhibitor, full curve, poor fit]. With `COc1cccc(O)c1CN1CCC(C(=O)Nc2ccc(-c3cccc(C)c3)cc2)CC1` the Potency was inconclusive: 35.5 µM [inhibitor, single point]. In the case of `CCOc1ccccc1NC(=O)C(OC(=O)c1ccc(O)cc1)c1ccccc1` (stereo unspecified), the Potency is reported as inconclusive: 25.1 µM [inhibitor, partial curve, poor fit]. In the case of `CC(C)=CCN1C(=O)[C@]2(OCCC=C[C@H]2C)c2c(Br)cccc21`, the Potency is reported as inconclusive: 0.075 µM [activator, partial curve, poor fit]. In the case of `CCN(CC(=O)NCc1ccc(F)cc1)C(=O)c1cc2ccccc2o1`, the Potency is reported as inconclusive: 10 µM [inhibitor, partial curve, poor fit]. With `COCC(=O)Nc1c(C(=O)Nc2ccc3c(c2)OCCO3)oc2ccccc12` the Potency was inconclusive: 35.5 µM [inhibitor, single point]. For `O=C(CSc1ncnc2c1cnn2-c1ccc(F)cc1)NCc1ccc2c(c1)OCO2`, the Potency was inconclusive: 3.66 µM [activator, partial curve, poor fit]. With `COc1ccc(CC(=O)n2[nH]c(=O)c3ccccc3c2=O)cc1OC` the “activity change, negative = inhibition” value was inactive: 3.31%. In the case of `CCOc1ccc(S(=O)(=O)N(CC(=O)NCc2ccccc2OC)c2ccccc2)cc1`, the Potency is reported as inconclusive: 14.1 µM [inhibitor, partial curve, poor fit]. With `S=C(Nc1ccccc1)N1CCOCCOCCN(C(=S)Nc2ccccc2)CCOCCOCC1` the “activity change, negative = inhibition” value was inactive: 16.5%. With `CC(OC(=O)c1cc(=O)[nH]c2ccccc12)c1ccccc1` (stereo unspecified) the Potency was inconclusive: 4.61 µM [activator, single point]. With `COc1cc2c(cc1OC)C(C)N(C(=O)C1COc3ccccc3O1)CC2` (stereo unspecified) the Potency was inconclusive: 11.2 µM [inhibitor, partial curve, poor fit]. With `O=C(CCC(=O)c1cccs1)NNC(=O)c1ccccc1O` the “activity change, negative = inhibition” value was inactive: 7.08%. In the case of `COc1ccc(-c2cnnn2-c2ccc(NC(=O)/C=C/c3ccc(OC)c(OC)c3)cc2)cc1`, the Potency is reported as inconclusive: 8.91 µM [inhibitor, partial curve, poor fit]. For `Cc1cc(/C=N/NC(N)=O)c(C)n1-c1ccc(F)cc1`, the “activity change, negative = inhibition” value was inactive: -18.6%. In the case of `Cc1cc(NC(=O)CSc2nc3c(cc2C#N)CCCCC3)no1`, the Potency is reported as inconclusive: 2.82 µM [inhibitor, full curve, poor fit]. In the case of `CCOCCCn1c(=S)[nH]c2cc(C(=O)NC3CCCC(C)C3C)ccc2c1=O` (stereo unspecified), the Potency is reported as inconclusive: 35.5 µM [activator, partial curve, poor fit]. In the case of `O=C(CN1CCCCCC1)Nc1cccc(Br)c1`, the “activity change, negative = inhibition” value is reported as inactive: -1.39%. With `O=C(NCCc1ccc(Cl)cc1)c1ccc(CS(=O)Cc2ccccc2Cl)o1` (stereo unspecified) the Potency was inconclusive: 3.16 µM [inhibitor, full curve]. In the case of `CCOC(=O)C1CCN(S(=O)(=O)c2cccc(-c3cn4cc(Cl)ccc4n3)c2)CC1`, the “activity change, negative = inhibition” value is reported as inactive: -20.4%. In the case of `O=C(c1ccco1)N1CCN(C(=O)c2ccco2)C1=S`, the Potency is reported as inconclusive: 20 µM [inhibitor, partial curve, poor fit]. For `CCNc1ccc(C(=O)OCC)cc1NC(=O)c1cccc(S(=O)(=O)N(C)c2ccccc2)c1`, the Potency was inconclusive: 35.5 µM [inhibitor, single point]. With `O=C(Cn1c(=O)oc2ccccc21)Nc1ccc(Br)cc1` the Potency was inconclusive: 5.01 µM [inhibitor, full curve].
